System: BAF complex subunits and histone proteins
Assay: Mass spectrometry proteomics of purified HA-SS18 WT and HA-SS18-SSX1 complexes (Tables 5A-5E)
Design: species or system human
Settings: HEK-293T
[1] = HA-SS18SSX1_CHR_peptides: protein identified in the HA-SS18-SSX1 purification from solubilized chromatin (CHR)
[2] = HA-SS18SSX1 purification, NE (soluble nuclear extract) fraction, peptides per identified protein
[3] = HA-SS18WT_CHR_peptides: HA-SS18 WT purification from nuclease-treated solubilized chromatin (CHR), label = protein identified
[4] = HA-SS18WT_NE_peptides: HA-SS18 WT complexes purified from nuclear extract (NE), label = protein identified (Gene Symbol)

B1: NUP160 (protein, UniProt Q12769 1-1436, looked up)
Nuclear pore complex protein …: MLHLSAAPPAPPPEVTATARPCLCSVGRRGDGGKMAAAGALERSFVELSGAERERPRHFREFTVCSIGTANAVAGAVKYSESAGGFYYVESGKLFSVTRNRFIHWKTSGDTLELMEESLDINLLNNAIRLKFQNCSVLPGGVYVSETQNRVIILMLTNQTVHRLLLPHPSRMYRSELVVDSQMQSIFTDIGKVDFTDPCNYQLIPAVPGISPNSTASTAWLSSDGEALFALPCASGGIFVLKLPPYDIPGMVSVVELKQSSVMQRLLTGWMPTAIRGDQSPSDRPLSLAVHCVEHDAFIFALCQDHKLRMWSYKEQMCLMVADMLEYVPVKKDLRLTAGTGHKLRLAYSPTMGLYLGIYMHAPKRGQFCIFQLVSTESNRYSLDHISSLFTSQETLIDFALTSTDIWALWHDAENQTVVKYINFEHNVAGQWNPVFMQPLPEEEIVIRDDQDPREMYLQSLFTPGQFTNEALCKALQIFCRGTERNLDLSWSELKKEVTLAVENELQGSVTEYEFSQEEFRNLQQEFWCKFYACCLQYQEALSHPLALHLNPHTNMVCLLKKGYLSFLIPSSLVDHLYLLPYENLLTEDETTISDDVDIARDVICLIKCLRLIEESVTVDMSVIMEMSCYNLQSPEKAAEQILEDMITIDVENVMEDICSKLQEIRNPIHAIGLLIREMDYETEVEMEKGFNPAQPLNIRMNLTQLYGSNTAGYIVCRGVHKIASTRFLICRDLLILQQLLMRLGDAVIWGTGQLFQAQQDLLHRTAPLLLSYYLIKWGSECLATDVPLDTLESNLQHLSVLELTDSGALMANRFVSSPQTIVELFFQEVARKHIISHLFSQPKAPLSQTGLNWPEMITAITSYLLQLLWPSNPGCLFLECLMGNCQYVQLQDYIQLLHPWCQVNVGSCRFMLGRCYLVTGEGQKALECFCQAASEVGKEEFLDRLIRSEDGEIVSTPRLQYYDKVLRLLDVIGLPELVIQLATSAITEAGDDWKSQATLRTCIFKHHLDLGHNSQAYEALTQIPDSSRQLDCLRQLVVVLCERSQLQDLVEFPYVNLHNEVVGIIESRARAVDLMTHNYYELLYAFHIYRHNYRKAGTVMFEYGMRLGREVRTLRGLEKQGNCYLAALNCLRLIRPEYAWIVQPVSGAVYDRPGASPKRNHDGECTAAPTNRQIEILELEDLEKECSLARIRLTLAQHDPSAVAVAGSSSAEEMVTLLVQAGLFDTAISLCQTFKLPLTPVFEGLAFKCIKLQFGGEAAQAEAWAWLAANQLSSVITTKESSATDEAWRLLSTYLERYKVQNNLYHHCVINKLLSHGVPLPNWLINSYKKVDAAELLRLYLNYDLLEEAVDLVSEYVDAVLGKGHQYFGIEFPLSATAPMVWLPYSSIDQLLQALGENSANSHNIALSQKILDKLEDYQQKVDKATRDLLYRRTL
[1]
  Total (total peptides): 5
  Unique (unique peptides): 5
[2]
  Total (total peptides): 9
  Unique (unique peptides): 8
[3]
  Total (peptides): 4
  Unique (peptides): 3
[4]
  Total (peptides): 10
  Unique (peptides): 10
